Results are given in words; binding and its absence hold for the method and conditions named. Binding seen in cells or lysates may run through a third protein.
Target: T1, TRIM35 (as used in the co-IP with p300, Fig. S2B) (human) (UniProt Q9UPQ4)
T1 sequence: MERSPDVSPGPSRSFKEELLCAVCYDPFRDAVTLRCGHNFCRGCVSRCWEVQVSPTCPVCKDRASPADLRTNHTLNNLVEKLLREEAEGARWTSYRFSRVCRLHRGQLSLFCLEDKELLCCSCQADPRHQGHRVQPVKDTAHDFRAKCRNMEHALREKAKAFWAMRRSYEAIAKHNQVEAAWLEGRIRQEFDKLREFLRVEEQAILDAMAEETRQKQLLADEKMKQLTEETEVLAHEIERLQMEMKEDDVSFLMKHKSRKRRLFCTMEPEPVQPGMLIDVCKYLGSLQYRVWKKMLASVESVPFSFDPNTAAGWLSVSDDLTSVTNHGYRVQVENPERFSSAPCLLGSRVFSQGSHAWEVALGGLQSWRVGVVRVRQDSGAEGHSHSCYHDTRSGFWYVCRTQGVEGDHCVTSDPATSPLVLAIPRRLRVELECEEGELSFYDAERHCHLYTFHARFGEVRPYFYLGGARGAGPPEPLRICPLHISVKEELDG
Test: co-IP; TRIM35 and p300, each precipitated in turn (Fig. S2B); cells not given; western blot

Chains of the proteins cited; added tags and fusions are not shown.
UniProt Q09472: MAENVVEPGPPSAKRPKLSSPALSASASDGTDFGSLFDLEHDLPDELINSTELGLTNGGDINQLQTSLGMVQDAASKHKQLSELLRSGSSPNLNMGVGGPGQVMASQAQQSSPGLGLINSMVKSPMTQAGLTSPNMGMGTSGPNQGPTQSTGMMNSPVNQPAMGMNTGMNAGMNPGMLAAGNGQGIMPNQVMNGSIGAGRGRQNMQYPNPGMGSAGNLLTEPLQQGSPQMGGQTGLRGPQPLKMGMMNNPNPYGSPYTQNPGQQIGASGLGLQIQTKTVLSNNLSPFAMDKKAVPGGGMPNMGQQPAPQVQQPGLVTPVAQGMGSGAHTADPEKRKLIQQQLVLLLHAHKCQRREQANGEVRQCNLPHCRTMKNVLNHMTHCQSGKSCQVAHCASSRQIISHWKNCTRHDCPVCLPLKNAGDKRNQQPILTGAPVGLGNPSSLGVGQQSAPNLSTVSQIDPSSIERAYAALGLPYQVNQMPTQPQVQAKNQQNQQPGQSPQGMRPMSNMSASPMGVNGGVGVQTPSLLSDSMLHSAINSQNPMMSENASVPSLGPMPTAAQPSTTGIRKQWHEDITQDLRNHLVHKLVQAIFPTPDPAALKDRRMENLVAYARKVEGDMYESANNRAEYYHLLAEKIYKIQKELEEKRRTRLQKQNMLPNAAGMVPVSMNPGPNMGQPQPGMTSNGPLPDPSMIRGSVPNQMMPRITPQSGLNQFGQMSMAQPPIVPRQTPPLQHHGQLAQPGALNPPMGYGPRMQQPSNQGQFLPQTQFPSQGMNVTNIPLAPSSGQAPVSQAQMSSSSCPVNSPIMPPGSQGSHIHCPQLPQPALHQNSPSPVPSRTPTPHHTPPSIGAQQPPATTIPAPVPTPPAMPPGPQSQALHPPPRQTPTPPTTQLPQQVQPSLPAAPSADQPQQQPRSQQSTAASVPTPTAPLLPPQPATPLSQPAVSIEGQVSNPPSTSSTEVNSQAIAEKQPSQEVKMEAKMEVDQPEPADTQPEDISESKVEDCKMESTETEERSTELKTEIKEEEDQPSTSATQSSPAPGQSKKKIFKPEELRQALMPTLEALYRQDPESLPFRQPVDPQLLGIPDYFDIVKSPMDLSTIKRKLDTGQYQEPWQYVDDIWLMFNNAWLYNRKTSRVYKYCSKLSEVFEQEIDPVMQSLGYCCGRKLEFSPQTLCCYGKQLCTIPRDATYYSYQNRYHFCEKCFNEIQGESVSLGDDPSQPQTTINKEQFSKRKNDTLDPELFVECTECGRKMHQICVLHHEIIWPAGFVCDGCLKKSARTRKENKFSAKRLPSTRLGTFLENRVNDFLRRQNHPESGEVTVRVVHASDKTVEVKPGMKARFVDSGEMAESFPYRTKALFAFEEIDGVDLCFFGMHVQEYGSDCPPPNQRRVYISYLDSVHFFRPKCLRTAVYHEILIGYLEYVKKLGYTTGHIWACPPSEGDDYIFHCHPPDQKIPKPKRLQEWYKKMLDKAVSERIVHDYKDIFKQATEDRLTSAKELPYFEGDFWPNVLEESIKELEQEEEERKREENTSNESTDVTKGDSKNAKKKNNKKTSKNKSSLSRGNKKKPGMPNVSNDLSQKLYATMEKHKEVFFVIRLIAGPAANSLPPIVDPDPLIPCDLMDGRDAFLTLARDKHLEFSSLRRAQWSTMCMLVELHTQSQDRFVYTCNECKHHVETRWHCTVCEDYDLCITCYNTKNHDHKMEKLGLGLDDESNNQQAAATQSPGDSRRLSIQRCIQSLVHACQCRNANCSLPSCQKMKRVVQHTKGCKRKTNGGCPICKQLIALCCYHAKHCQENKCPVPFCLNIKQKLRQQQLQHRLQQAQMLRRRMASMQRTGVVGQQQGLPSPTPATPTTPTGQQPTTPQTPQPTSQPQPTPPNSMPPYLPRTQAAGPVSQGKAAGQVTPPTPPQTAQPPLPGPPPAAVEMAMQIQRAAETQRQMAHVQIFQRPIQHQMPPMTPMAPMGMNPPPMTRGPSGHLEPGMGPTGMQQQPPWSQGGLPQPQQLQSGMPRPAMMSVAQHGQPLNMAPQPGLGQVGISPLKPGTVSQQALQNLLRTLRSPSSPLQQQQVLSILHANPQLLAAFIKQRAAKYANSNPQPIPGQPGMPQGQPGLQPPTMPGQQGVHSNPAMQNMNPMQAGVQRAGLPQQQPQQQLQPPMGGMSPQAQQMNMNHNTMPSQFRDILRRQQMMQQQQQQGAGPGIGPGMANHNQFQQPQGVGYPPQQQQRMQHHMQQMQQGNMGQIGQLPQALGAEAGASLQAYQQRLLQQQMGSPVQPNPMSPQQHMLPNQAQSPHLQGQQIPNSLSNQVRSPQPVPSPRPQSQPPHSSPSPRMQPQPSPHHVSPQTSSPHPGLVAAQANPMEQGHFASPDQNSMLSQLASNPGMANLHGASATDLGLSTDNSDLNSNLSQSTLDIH

“p300 (from UniProt Q09472 1-2414) (enzyme)” was tested, and the binding was “no binding”.
